Screening data, single-dose tests

Each number is a percent effect as filed.
The controls that fix the scale are not given in the record; negative values are as filed.
The compounds are a random part of those screened.
Two or more numbers in one place are separate tests of the same structure; such repeats can differ widely.

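Growth of Mycobacterium tuberculosis over 4 days (cholesterol / DPPC medium with tyloxapol); the read-out is not stated. Concentration: 50 µM. Direction is inferred from retests: higher values go with more growth inhibition. About 69,000 compounds were tested under these conditions; 0.54% (about 370) showed 50% or more at least once.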

structure,effect
Cc1noc(C)c1C(=O)N(C)C(C)c1cccnc1 (stereo not shown),-5.057%
Cn1c(N2CCOCC2)nc2cc(C(=O)N3CCCOCC3)ccc21,2.985%
c1coc(CN2CCn3c(CN4CCOCC4)nnc3C2)c1,10.28%
Cc1nn(C)c(Oc2cccnc2)c1NC(=O)C1CCCO1 (stereo not shown),-7.893%
CSCc1noc(CNS(=O)(=O)c2cccc(C(=O)NC3CC3)c2)n1,-9.685%
CCCc1cc(=O)n(CC(=O)NCCOC)c(-n2nc(C)cc2C)n1,7.09%
O=C(O)C(F)(F)F.c1ccc(CN2Cc3[nH]nc(COCC4CC4)c3C2)nc1,26.89%
NC(=O)CC1CC2(CCNCC2)c2cc(F)ccc21.O=C(O)C(F)(F)F (stereo not shown),-8.189%
CC(C)=CCN1CCN(Cc2cc(C)c(O)c(C)c2)CC1CCO (stereo not shown),-10.12%
Cc1ncc(CN(C)Cn2nc(-c3ccccc3)oc2=O)s1,1.1%
CCn1ncc2c(C(F)(F)F)cc(-c3cnn(C)c3)nc21,12.74%
O=C(CC1CC1)N1CCC2(CC1)CN(c1ncc(F)cn1)CCO2,-19.6% & -17.17%
CCc1n[nH]c(C2CN(C(=O)CCc3cccs3)CCO2)n1 (stereo not shown),-15.9%
O=C(NCCCO)c1cc(-c2ccc3c(c2)CCO3)n[nH]1,-24.83%
CC1CN(C)c2ccccc2CN1C(=O)c1ccoc1 (stereo not shown),2.597% & -4.111%
O=C(c1ccc2c(c1)CCCC2)N1CCOCC1c1ncon1 (stereo not shown),18.05%
Cc1cnn(CC2CCCN2C(=O)CN(C)C2CC2)c1 (stereo not shown),0.2331%
O=C(c1cccc(-n2cnnc2)c1)N1C[C@@H](O)[C@H](N2CCOCC2)C1,10.13% & -8.106%
Cc1cnn(C2CN(Cc3nc(-c4ccsc4)no3)C2)c1,17.86%
CC(Nc1c(F)cc(C#N)cc1F)c1cccc(S(N)(=O)=O)c1 (stereo not shown),7.75% & 0.9633%
NC(=O)C1CCN(S(=O)(=O)c2cnn(-c3ccccc3)c2)CC1,-13.54%
CSCCN(C)Cc1ccc(F)cc1C#N,-19.23%
CC(C)c1n[nH]c(C2CN(C(=O)CCCn3cccn3)CCO2)n1 (stereo not shown),-17.83%
COc1cc(C(=O)NS(=O)(=O)c2cccc(C#N)c2)cc(Cl)c1OC,-10.69%
O=C(NCC(O)CO)Nc1cc(Br)ccc1F (stereo not shown),-7.217% & -0.1702%
COCCCn1c(CN2CCCCO2)cnc1S(=O)(=O)C1CCCC1,-12.46%
CC(=O)N1CCCC(C(=O)Nc2ccccc2Cc2ccccc2)C1 (stereo not shown),-36.09%
COC(=O)c1sccc1CN1CCN(C(=O)c2ccc(C)o2)CC1,17.09%
Cc1ccsc1CN(C)Cc1nc2c(cnn2C)c(=O)[nH]1,-10.95%
Cc1cc(C(=O)N2CCN(CC(O)Cn3cccn3)CC2)c(C)o1 (stereo not shown),-15.42%
COC[C@H]1CCC[C@H]1Nc1ncnc2c1CCNCC2,10.93%
CC(C)Oc1ncccc1CNC(=O)N1CCOCC1,-27.17%
NC(=O)NC(=O)Cn1ccc2sccc2c1=O,-0.0978%
Cc1nc(C2CCN(CC(=O)NC3CC3)CC2)cc(N2CCOCC2)n1,11.78%
COCCN1CCc2cc(C(=O)NC(C)C)c(NCC(C)C)nc2CC1.O=C(O)C(F)(F)F.O=C(O)C(F)(F)F,-1.877% & 13.84%
CCC(=O)N1CCC2(CC1)C(=O)N(C)CCN2Cc1csc(C)n1.O=C(O)C(F)(F)F,-2.624%
O=C1CCCN1Cc1nnc2n1CCN(Cc1ccco1)C2,-8.807%
Nc1ncc(-c2ccc(F)cc2)c(C2CCCNC2)n1 (stereo not shown),3.291% & -14.21%
CC(Cn1ccnc1)NCc1cc(Br)c2c(c1)OCO2.Cl (stereo not shown),-28.67%
CC(NS(=O)(=O)N(C)C(C)C)C(=O)N(C)C (stereo not shown),-11.17%
COc1cccc(CN2CCC3(CC2)CCN(c2ncccn2)C3)c1.O=C(O)C(F)(F)F.O=C(O)C(F)(F)F,-13.19%
CCN1Cc2cc(F)ccc2N(C(C)=O)CCC1=O,-0.4307%
O=C(NCC1CC1)C1CCC2(CCN(C(=O)c3ccoc3)CC2)O1 (stereo not shown),-1.907% & -4.687%
O=C1CC(c2ccsc2)c2sc(C(=O)O)c(-c3ccc(F)cc3)c2N1 (stereo not shown),-38.12%
Cc1ccc(CN2CCCC3(COCCN(Cc4c[nH]nn4)C3)C2)s1.O=C(O)C(F)(F)F.O=C(O)C(F)(F)F (stereo not shown),-47.92%
Cc1cc(N2CCC(Cc3ccccc3)CC2)nc(-c2ccncc2)n1,20.72%
CC(Cn1cc(Br)cn1)C(=O)Nc1ccn(C)n1 (stereo not shown),-10.8%
Cc1ccsc1C(=O)NCc1ccnc(N2CCN(C)CC2)c1,-4.707%
CC[C@H](C)[C@H](N)C(=O)N1CC(=O)c2sc(NC3CCCCC3)nc2C1,-15.57%
CCOc1ccc(S(=O)(=O)NC(=O)CCC2CCCO2)cc1 (stereo not shown),-26.07%
COc1ccc(CN(C)CC(=O)Nc2ccc3[nH]c(=O)[nH]c3c2)cc1F,-34.92%
CNc1nc(C)cc(NC2CCCN(C3Cc4ccccc4C3)C2)n1 (stereo not shown),19.48%
c1ccc(OCCNc2ncnc3sc4c(c23)CCNC4)cc1,15.56%
[H][C@@]12CN(c3cc(OC)ncn3)C[C@H](C(=O)N3CCCC3)[C@]1([H])CCO2,2.016%
CCCN(C1CCc2ccccc2C1)S(C)(=O)=O (stereo not shown),0.1771%
Cc1cccc(N2CCc3ncc(CNc4ccccn4)n3CC2)n1.O=C(O)C(F)(F)F.O=C(O)C(F)(F)F,5.29%
CN(C)c1ccc(C(=O)N2CCN(c3cnccn3)CC2)cn1,-18.11%
CC(C)CN1CCC2(CCCNC2)C1=O.Cl (stereo not shown),9.41%
COc1ccc(NC(=O)C(c2ccc(OC)cc2)N2CCOCC2)cc1 (stereo not shown),-21.46%
COc1cccc(N2CCN(C(=O)C(O)c3ccccc3Cl)CC2=O)c1 (stereo not shown),2.774%
Cc1nc(CN(C)C)cc(N2CCCC(COc3ccc(F)cc3)C2)n1 (stereo not shown),10.96%
Cc1ccc(C)c2c(=O)cc(CN3CC[C@@H](N)[C@H](O)C3)[nH]c12,-26.56%
Cc1cn2c(n1)CCC(NC(=O)CCCOCc1ccccc1)C2 (stereo not shown),-15.15% & -8.441%
CC(C)CC(=O)N1CCC(Nc2nc(O)cc(-c3ccsc3)n2)CC1,-1.721% & -10.7%
CC(=O)N1CCCC1c1nc(N(C)C)ncc1-c1ccccc1 (stereo not shown),-0.4113%
CC(=O)N(Cc1noc(C)n1)C1CCN(Cc2ccon2)C1 (stereo not shown),-8.148%
CCOC(=O)c1sc2ccsc2c1CNC(=O)C(C)OC (stereo not shown),-1.658%
CC(C)NC1CCc2c(ccc(=O)n2CCN2CCOCC2)C1.O=C(O)C(F)(F)F.O=C(O)C(F)(F)F (stereo not shown),-1.661%
[H][C@]12CNC[C@@]1(C(=O)N(C)Cc1cnc(NC)nc1)CN(C(=O)C1CC1)C2,8.973%
O=C(O)C(F)(F)F.O=C(O)C(F)(F)F.O=C(O)C(F)(F)F.[H][C@@]12CCC(=O)N(Cc3cccc(C)n3)[C@]1([H])CCN2Cc1cccnc1,-10.1%
c1cncc(CN(Cc2ccc3c(c2)OCCO3)CC2CCCO2)c1 (stereo not shown),-7.974%
O=C(O)C(F)(F)F.[H][C@@]12COC[C@@H](CC(=O)N3CCCCO3)[C@]1([H])CN(CC1CCOCC1)C2,-4.119%
COc1ccc2cc(CN(C)C(C)c3nc(C(C)(C)C)no3)ccc2c1 (stereo not shown),-20.56%
[H][C@]12CCN(c3cc(OC)ncn3)CC[C@]1([H])N(C)CCO2,-2.234%
CN(CCC(F)(F)F)C(=O)[C@H]1CSCN1C(=O)OC(C)(C)C,-2.285%
Cc1nc(NCC2CC2)nc2c1COCC21CCN(C)C1 (stereo not shown),-2.986%
CCOCc1ccc(NC(=O)N2CCCC2c2nncn2C)cc1 (stereo not shown),3.701%
[H][C@@]12CC[C@@]([H])(C1)N(CCC(=O)N1CCN(c3cc(C)cc(C)c3)C(=O)C1)C2,-4.736%
CCC1c2ccsc2CCN1C(=O)NCCc1ccccn1 (stereo not shown),10.76%
COc1cc2nc3n(c(=O)c2cc1OC)CCN(C(C)=O)CC3,-14.47%
CSc1c[nH]nc1NS(=O)(=O)c1cc(F)ccc1C,-6.327%
O=C(O)C(F)(F)F.[H][C@@]12COC[C@@H](C(=O)Nc3cnccn3)[C@]1([H])CN(C1CCC1)C2,0.8013%

The last 10 entries again:

| structure | effect |
|---|---|
| `COc1ccc2cc(CN(C)C(C)c3nc(C(C)(C)C)no3)ccc2c1` (stereo not shown) | -20.56% |
| `[H][C@]12CCN(c3cc(OC)ncn3)CC[C@]1([H])N(C)CCO2` | -2.234% |
| `CN(CCC(F)(F)F)C(=O)[C@H]1CSCN1C(=O)OC(C)(C)C` | -2.285% |
| `Cc1nc(NCC2CC2)nc2c1COCC21CCN(C)C1` (stereo not shown) | -2.986% |
| `CCOCc1ccc(NC(=O)N2CCCC2c2nncn2C)cc1` (stereo not shown) | 3.701% |
| `[H][C@@]12CC[C@@]([H])(C1)N(CCC(=O)N1CCN(c3cc(C)cc(C)c3)C(=O)C1)C2` | -4.736% |
| `CCC1c2ccsc2CCN1C(=O)NCCc1ccccn1` (stereo not shown) | 10.76% |
| `COc1cc2nc3n(c(=O)c2cc1OC)CCN(C(C)=O)CC3` | -14.47% |
| `CSc1c[nH]nc1NS(=O)(=O)c1cc(F)ccc1C` | -6.327% |
| `O=C(O)C(F)(F)F.[H][C@@]12COC[C@@H](C(=O)Nc3cnccn3)[C@]1([H])CN(C1CCC1)C2` | 0.8013% |

Measurements from “University of Dundee, Small-Polar-MMV Screening Library” (2021), ChEMBL document CHEMBL3988442.